Assay results: the supplement of paper PMC10849652
The other results are listed elsewhere or left out.

Chains of the proteins cited; added tags and fusions are not shown. Lines headed by an entry give the natural chain unless they say otherwise; changes in a name come on top.
UniProt Q6NUT2: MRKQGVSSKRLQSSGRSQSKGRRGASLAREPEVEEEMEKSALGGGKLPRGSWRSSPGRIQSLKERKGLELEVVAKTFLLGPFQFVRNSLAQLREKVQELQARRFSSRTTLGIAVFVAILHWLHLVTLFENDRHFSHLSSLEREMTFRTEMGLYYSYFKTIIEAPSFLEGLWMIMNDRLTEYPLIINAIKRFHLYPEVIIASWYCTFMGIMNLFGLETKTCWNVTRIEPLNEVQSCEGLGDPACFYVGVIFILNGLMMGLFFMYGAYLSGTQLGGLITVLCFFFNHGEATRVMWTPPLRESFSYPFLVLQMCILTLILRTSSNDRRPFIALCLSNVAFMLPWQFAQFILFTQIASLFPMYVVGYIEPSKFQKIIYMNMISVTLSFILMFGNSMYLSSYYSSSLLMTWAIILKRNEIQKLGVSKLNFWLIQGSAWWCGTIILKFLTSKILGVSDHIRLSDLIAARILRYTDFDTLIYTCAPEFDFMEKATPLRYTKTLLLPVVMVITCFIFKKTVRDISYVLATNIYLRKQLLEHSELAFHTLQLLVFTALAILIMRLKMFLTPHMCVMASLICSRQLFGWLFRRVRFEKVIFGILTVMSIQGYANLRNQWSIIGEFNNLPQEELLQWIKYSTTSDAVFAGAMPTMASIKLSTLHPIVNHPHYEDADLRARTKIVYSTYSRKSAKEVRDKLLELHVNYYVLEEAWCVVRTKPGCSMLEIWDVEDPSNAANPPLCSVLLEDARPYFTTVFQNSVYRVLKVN
UniProt Q6P3W2: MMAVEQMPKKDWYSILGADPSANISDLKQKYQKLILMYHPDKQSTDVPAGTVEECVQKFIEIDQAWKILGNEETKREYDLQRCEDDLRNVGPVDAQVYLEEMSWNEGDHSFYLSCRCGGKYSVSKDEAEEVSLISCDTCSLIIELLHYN
UniProt P25685, whole entry, looked up: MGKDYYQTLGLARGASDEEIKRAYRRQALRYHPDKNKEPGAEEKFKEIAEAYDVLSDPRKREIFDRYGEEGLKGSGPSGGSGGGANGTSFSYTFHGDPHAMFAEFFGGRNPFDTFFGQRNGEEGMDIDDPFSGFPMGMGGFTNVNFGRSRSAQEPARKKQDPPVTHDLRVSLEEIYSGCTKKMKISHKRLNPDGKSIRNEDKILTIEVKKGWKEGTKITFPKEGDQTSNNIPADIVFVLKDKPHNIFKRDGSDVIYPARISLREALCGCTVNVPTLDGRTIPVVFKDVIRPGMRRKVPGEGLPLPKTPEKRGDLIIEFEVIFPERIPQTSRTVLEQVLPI
UniProt Q96BY6: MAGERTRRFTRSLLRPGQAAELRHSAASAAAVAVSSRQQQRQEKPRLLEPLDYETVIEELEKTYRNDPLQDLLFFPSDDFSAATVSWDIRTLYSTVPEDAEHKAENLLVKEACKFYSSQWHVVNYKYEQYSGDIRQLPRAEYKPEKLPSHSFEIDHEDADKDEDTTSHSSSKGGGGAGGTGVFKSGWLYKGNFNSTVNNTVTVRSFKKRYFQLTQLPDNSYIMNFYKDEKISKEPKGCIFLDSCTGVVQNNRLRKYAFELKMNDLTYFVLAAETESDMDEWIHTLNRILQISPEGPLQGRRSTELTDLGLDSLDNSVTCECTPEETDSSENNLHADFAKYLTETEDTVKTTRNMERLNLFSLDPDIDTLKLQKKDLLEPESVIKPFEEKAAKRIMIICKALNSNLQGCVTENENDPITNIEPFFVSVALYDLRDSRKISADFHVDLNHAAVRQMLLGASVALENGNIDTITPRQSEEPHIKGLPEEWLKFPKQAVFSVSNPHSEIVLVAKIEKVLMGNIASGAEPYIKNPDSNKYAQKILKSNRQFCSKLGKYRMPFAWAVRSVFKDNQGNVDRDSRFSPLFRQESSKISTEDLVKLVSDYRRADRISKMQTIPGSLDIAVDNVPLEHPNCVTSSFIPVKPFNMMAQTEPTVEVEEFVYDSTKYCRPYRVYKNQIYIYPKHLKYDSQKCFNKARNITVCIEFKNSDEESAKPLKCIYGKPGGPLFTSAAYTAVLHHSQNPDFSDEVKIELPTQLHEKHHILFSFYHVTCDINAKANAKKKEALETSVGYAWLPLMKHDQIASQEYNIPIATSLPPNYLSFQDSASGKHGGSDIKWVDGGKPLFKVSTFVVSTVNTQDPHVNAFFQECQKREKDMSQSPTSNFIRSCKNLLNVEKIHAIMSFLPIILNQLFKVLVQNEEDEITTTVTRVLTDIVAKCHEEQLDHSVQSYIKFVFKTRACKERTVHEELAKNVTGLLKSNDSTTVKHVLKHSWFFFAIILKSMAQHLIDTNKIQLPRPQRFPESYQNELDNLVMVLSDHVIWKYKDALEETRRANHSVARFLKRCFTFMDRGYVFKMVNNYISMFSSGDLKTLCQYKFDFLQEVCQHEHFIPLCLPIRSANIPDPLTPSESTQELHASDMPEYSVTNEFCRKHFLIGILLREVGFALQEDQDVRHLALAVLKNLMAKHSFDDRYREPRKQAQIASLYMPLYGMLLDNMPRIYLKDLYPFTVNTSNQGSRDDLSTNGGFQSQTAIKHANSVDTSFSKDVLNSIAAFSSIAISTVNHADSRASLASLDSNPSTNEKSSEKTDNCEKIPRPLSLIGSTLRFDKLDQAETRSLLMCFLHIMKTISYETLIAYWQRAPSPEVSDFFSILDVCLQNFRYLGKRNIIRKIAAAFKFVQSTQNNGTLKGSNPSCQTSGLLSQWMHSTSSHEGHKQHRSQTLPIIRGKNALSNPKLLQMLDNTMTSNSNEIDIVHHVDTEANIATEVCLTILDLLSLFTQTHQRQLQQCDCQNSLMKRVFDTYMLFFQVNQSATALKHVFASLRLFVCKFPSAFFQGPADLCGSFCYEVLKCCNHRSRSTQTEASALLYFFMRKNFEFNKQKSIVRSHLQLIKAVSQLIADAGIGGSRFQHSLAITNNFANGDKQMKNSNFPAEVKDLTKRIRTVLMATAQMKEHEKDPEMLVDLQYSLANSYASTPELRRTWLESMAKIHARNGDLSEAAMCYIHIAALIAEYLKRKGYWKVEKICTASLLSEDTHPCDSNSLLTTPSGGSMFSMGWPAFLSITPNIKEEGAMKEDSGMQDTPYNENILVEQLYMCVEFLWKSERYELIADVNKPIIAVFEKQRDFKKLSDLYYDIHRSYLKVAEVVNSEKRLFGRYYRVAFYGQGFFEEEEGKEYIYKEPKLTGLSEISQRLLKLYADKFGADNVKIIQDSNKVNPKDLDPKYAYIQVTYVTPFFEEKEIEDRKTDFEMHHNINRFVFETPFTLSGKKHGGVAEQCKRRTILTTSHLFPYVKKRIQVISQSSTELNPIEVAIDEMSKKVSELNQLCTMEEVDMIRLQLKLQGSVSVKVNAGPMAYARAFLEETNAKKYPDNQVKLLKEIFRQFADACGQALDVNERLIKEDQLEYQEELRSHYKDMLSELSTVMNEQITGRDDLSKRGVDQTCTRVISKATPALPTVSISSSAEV
UniProt Q96FN9: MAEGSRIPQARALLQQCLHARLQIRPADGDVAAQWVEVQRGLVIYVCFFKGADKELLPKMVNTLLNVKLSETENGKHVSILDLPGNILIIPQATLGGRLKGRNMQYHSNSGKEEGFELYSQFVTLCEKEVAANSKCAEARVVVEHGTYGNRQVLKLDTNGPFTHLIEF
UniProt Q9H1X3: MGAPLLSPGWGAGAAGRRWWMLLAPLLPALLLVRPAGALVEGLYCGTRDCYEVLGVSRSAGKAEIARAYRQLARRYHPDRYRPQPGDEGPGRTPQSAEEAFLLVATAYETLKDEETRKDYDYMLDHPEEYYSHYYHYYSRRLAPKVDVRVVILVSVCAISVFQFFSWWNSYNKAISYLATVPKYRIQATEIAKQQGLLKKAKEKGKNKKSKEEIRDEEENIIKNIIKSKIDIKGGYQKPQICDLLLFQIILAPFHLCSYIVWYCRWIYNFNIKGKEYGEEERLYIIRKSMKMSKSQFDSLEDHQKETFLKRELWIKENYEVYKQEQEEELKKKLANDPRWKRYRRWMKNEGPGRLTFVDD
UniProt P49184: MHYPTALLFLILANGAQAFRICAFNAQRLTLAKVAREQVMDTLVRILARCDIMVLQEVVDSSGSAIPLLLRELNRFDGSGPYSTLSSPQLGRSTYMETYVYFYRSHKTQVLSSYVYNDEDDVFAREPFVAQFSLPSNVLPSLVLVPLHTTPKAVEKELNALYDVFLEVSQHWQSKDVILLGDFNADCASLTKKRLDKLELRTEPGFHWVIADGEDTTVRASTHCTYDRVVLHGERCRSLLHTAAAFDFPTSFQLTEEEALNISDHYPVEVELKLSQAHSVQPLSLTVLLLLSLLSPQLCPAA
UniProt Q96LL9: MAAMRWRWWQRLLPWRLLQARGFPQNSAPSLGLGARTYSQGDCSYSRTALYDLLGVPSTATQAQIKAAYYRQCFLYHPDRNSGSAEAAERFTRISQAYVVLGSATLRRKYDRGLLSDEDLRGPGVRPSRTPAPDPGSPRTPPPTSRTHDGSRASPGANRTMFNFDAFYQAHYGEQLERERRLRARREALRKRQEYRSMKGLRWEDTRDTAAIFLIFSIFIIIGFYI
UniProt Q7L591: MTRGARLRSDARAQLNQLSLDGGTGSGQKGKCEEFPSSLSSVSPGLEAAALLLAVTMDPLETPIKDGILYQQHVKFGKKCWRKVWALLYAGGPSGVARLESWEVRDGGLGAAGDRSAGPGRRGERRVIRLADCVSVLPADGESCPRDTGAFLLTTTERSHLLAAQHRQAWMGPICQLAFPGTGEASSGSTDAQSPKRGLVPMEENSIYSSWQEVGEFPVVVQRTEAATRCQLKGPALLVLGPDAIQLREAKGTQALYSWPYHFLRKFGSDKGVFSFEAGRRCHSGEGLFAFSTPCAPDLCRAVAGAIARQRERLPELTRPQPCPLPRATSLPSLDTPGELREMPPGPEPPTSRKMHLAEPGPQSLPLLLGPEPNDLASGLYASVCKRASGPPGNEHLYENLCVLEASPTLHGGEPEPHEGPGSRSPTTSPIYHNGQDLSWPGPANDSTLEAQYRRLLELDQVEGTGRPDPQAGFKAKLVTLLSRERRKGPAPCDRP
UniProt O14576, whole entry, looked up: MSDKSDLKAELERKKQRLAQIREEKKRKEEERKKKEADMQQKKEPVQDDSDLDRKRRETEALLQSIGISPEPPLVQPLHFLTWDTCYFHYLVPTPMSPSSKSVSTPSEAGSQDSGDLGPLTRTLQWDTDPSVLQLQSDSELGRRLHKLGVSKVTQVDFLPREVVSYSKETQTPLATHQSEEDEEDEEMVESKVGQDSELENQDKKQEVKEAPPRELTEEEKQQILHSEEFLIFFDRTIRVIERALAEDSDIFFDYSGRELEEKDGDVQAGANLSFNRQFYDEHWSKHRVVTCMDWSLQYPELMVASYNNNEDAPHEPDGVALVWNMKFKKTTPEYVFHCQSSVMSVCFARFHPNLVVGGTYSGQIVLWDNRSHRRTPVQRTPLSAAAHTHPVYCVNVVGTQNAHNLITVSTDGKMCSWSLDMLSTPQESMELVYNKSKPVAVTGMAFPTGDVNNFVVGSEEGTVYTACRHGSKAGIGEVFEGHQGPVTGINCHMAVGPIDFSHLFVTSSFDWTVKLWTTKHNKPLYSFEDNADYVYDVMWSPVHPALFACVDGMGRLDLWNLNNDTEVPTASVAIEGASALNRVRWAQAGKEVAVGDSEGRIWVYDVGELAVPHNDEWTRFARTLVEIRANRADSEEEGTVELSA
UniProt Q9H8V3: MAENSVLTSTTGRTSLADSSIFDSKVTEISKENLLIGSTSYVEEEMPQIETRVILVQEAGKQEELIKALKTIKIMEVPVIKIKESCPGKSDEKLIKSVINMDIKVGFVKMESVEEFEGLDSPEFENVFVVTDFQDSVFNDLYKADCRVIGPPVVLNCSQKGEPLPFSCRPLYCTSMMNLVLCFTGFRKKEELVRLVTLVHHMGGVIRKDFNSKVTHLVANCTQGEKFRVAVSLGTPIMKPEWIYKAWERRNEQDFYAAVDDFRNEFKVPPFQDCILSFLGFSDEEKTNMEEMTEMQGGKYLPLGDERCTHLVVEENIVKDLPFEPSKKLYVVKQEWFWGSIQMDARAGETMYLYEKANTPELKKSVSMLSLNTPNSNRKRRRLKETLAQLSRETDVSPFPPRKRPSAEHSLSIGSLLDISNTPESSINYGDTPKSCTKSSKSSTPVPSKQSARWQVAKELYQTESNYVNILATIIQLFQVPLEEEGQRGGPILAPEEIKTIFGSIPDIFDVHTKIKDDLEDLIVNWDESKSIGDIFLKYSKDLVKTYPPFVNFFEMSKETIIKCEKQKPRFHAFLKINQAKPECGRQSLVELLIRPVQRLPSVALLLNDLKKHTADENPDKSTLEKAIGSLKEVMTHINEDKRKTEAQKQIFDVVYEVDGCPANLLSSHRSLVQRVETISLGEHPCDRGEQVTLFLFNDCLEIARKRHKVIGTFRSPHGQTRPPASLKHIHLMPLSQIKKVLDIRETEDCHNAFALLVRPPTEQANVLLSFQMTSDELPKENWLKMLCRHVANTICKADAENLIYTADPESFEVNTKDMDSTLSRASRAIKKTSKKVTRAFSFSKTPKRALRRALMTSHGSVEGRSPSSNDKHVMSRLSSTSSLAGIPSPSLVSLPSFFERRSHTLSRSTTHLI

What was measured:
Assay in all cases: log2 fold change, soluble protein after heating vs DMSO (PISA); higher = thermal stabilisation; K562 cells, 10 uM, 30 min; active = over 0.2 and 3.5 SD of the protein, either way, in both replicates (recomputed)
[1] = compound: CC[C@@H]1C(=O)N(C)c2cnc(Nc3ccc(C(=O)NC4CCN(C)CC4)cc3OC)nc2N1C1CCCC1
How it was run: (§1)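 Values are thermal stability changes relative to control samples and are taken from duplicates. They are stated as log2 fold changes. Before quantification by TMTpro 16plex LC-MS/MS with equalised channel sums, K562 cells at 2×10^6 cells/mL were treated with 10 μM compound for 30 min, heated in aliquots for 3 min across 48°C-58°C, pooled, extracted in PBS with 0.5% NP-40 at 4°C, and centrifuged at 21,000xg for 90 min to give the soluble supernatant.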

[2] = compound: CC[C@H](C)N1C=C(C2=C(C=C(C=C21)C3=CN=C(C=C3)N4CCNCC4)C(=O)NCC5=C(C=C(NC5=O)C)C)C
How it was run: as §1

[3] = compound: CCn1cc(-c2ccnc3[nH]c(-c4cccc(CN(C)C)c4)cc23)c(-c2ccc(NC(=O)N(C)C)cc2)n1
How it was run: as §1

[4] = compound: CN(C)CC(=O)Nc1ccc2[nH]c(=O)c3ccccc3c2c1
How it was run: as §1

[5] = compound: CN(CCOC1=CC=C(C=C1)C[C@H]2C(=O)NC(=O)S2)C3=CC=CC=N3 (racemic) [rosiglitazone]
How it was run: as §1

[6] = compound: CN1CCC(CNc2ccc3ncc(-c4cccc(OC(F)(F)F)c4)n3n2)CC1
How it was run: as §1

[7] = compound: CC[C@H](C)[C@@H](C(=O)N[C@@H]([C@@H](C)O)C(=O)N[C@@H](CC(C)C)C(=O)[C@]1(CO1)C)NC(=O)[C@H]([C@@H](C)CC)N(C)C(=O)C [epoxomicin]
How it was run: as §1

[8] = compound: CN1C2=C(C3=C1C(=O)N(N=C3)CC4=CC(=CC=C4)N)SC(=C2)S(=O)C
How it was run: as §1

[9] = compound: CC[C@@H]1C(=O)N(C)c2cnc(Nc3ccc(C(=O)N[C@H]4CC[C@H](N5CCN(CC6CC6)CC5)CC4)cc3OC)nc2N1C(C)C [volasertib]
How it was run: as §1

[10] = compound: CCn1c(C(=O)N(C2CC2)C2CC2)cc2c3c(ncn3C)c(Nc3cc(C)n(C)n3)nc21
How it was run: as §1

Measured: log2 fold change

DPY19L2 (UniProt Q6NUT2)
inactive: [1] 0.074 | [2] -0.136 | [3] 0.003 | [4] 0.039 | [5] -0.005 | [6] 0.015

DOCK8 (UniProt Q8NF50)
inactive: [1] 0.01 | [2] 0.004 | [7] 0.119 | [3] -0.094 | [4] -0.009 | [8] 0.258 | [6] 0.137

DPP8 (UniProt Q6V1X1)
inactive: [1] 0.143 | [9] 0.007 | [2] -0.025 | [7] -0.045 | [3] 0.002 | [4] -0.057 | [8] -0.047 | [6] -0.106

DRAM2 (UniProt Q6UX65)
inactive: [1] 0.069 | [9] -0.038 | [7] -0.089 | [4] 0.093

DNAJC7 (UniProt Q99615)
inactive: [1] -0.079 | [2] 0.104 | [7] 0.073 | [3] -0.025 | [4] 0.014 | [8] -0.052 | [6] -0.142
active: [9] -0.266

DOP1B (UniProt Q9Y3R5)
inactive: [1] 0.018 | [2] -0.097 | [7] -0.08 | [3] -0.108 | [4] -0.166 | [5] 0.129 | [6] -0.239

DPYSL2 (UniProt Q16555)
inactive: [1] 0.055 | [9] -0.037 | [2] 0.014 | [7] 0.129 | [3] -0.073 | [4] 0.11 | [8] -0.058 | [6] -0.067

DONSON (UniProt Q9NYP3)
inactive: [1] 0.078 | [2] 0.067 | [7] -0.085 | [3] -0.065 | [4] 0.038 | [8] -0.206 | [6] -0.176

DNAJC24 (UniProt Q6P3W2)
inactive: [1] -0.318 | [9] -0.244 | [2] 0.029 | [7] 0.034 | [4] -0.027 | [8] -0.284

E2F4 (UniProt Q16254)
active: [6] -0.245
inactive: [1] -0.057 | [9] -0.139 | [2] 0.036 | [7] -0.008 | [3] -0.025 | [4] -0.024 | [8] 0.009

DYNLT1 (UniProt P63172)
inactive: [1] 0.02 | [9] 0.007 | [2] 0.045 | [10] -0.093 | [3] -0.114 | [4] 0.082 | [5] -0.044 | [8] -0.026 | [6] 0.131

DNAJB1 (UniProt P25685)
inactive: [1] 0.011 | [2] 0.064 | [7] -0.041 | [3] -0.026 | [4] -0.01 | [8] -0.064 | [6] -0.042
active: [9] -0.222

DTYMK (UniProt P23919)
inactive: [1] 0.044 | [9] 0.171 | [2] -0.03 | [7] 0.039 | [4] 0.01 | [8] -0.04 | [6] -0.037
active: [3] -0.245

DOCK10 (UniProt Q96BY6)
inactive: [1] 0.328 | [2] -0.197 | [4] -0.013

DPH5 isoform 5 (UniProt Q9H2P9)
inactive: [1] 0.047 | [9] 0.08 | [2] -0.022 | [7] 0.049 | [3] -0.018 | [4] -0.013 | [8] -0.115 | [6] 0.034

DOCK1 (UniProt Q14185)
inactive: [1] 0.127 | [9] -0.241 | [7] -0.052 | [10] -0.07 | [4] -0.019 | [5] -0.017 | [8] 0.028

DNAL1 (UniProt Q4LDG9)
inactive: [7] 0.082 | [4] 0.103 | [8] -0.256

DPCD (UniProt Q9BVM2)
inactive: [3] 0.02 | [4] -0.021 | [6] -0.011

DPYSL3 isoform 2 (UniProt Q14195)
inactive: [9] 0.043 | [10] -0.21 | [3] -0.317 | [4] 0.33 | [8] -0.303 | [6] -0.11

DNAJB14 (UniProt H7C494)
inactive: [9] 0.065 | [2] -0.039 | [3] -0.03 | [4] -0.03 | [8] -0.027 | [6] 0.068

DOP1A (UniProt Q5JWR5)
inactive: [7] 0.069 | [4] 0.121

DTD2 (UniProt Q96FN9)
inactive: [9] -0.012 | [2] 0.192 | [7] -0.056 | [10] -0.043 | [3] 0.023 | [4] 0.027 | [8] -0.092 | [6] 0.256

ECM1 isoform 2 (UniProt Q16610)
inactive: [2] 0.212 | [4] 0.332 | [5] 0.089

DNAJC25 (UniProt Q9H1X3)
inactive: [9] 0.077 | [10] -0.122 | [5] 0.179

DNASE1L1 (UniProt P49184)
inactive: [10] -0.075

DNAJC30 (UniProt Q96LL9)
inactive: [10] 0.092

Quoted from the results shown (two entries):
DTD2 (UniProt Q96FN9)
inactive: [9] -0.012 | [2] 0.192 | [7] -0.056 | [10] -0.043 | [3] 0.023 | [4] 0.027 | [8] -0.092 | [6] 0.256

ECM1 isoform 2 (UniProt Q16610)
inactive: [2] 0.212 | [4] 0.332 | [5] 0.089

(listing goes on)

DOK3 (UniProt Q7L591)
inactive: [9] -0.482 | [7] -0.054 | [10] -0.032 | [3] -0.023 | [4] 0.062 | [5] 0.123 | [8] -0.018 | [6] 0.144

DNAJC15 (UniProt Q9Y5T4)
inactive: [9] 0.125

DYNC1I1 (UniProt O14576)
inactive: [9] 0.047 | [7] -0.005 | [4] -0.035

DNPH1 (UniProt H0Y8X4)
inactive: [9] 0.146 | [2] 0.056 | [10] -0.018 | [8] 0.01

DROSHA (UniProt Q9NRR4)
inactive: [7] 0.06

DNAJB9 (UniProt Q9UBS3)
inactive: [10] -0.132 | [3] 0.197 | [6] -0.032

DNPEP (UniProt C9JBE1)
inactive: [9] 0.124 | [7] -0.131 | [10] 0.052 | [3] 0.046 | [4] 0.072 | [5] -0.046 | [8] 0.036 | [6] -0.473

ECT2 isoform 3 (UniProt Q9H8V3)
inactive: [1] -0.199 | [7] 0.268

DNAJB1 (UniProt M0R128)
inactive: [4] -0.038

DNMT3B (UniProt Q9UBC3)
inactive: [3] -0.103 | [8] -0.317 | [6] -0.001

DRAP1 (UniProt E9PQX9)
inactive: [9] -0.055 | [10] -0.05
